The chains are these.
T1: Homer1 EVH1 domain
T1 chain: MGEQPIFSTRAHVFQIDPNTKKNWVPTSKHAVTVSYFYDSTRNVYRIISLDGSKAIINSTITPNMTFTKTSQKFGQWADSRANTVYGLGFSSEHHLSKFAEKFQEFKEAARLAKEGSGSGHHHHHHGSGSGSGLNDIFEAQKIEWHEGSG

The list shows a part of the results. Values are worked out from sequencing counts and are noisy.

The experiment concerns the target T1, Homer1 EVH1 domain. As to the kind of experiment: enrichment score (AUC of log2 frequency ratio across FACS sorting rounds) (log2 AUC); higher = stronger enrichment for Homer1 EVH1 binding.
For the molecule ILGNTIFASFVGITKVVPILLAAASLVGGGLIALRL, the enrichment score stood at 2.53.
To SRLSDPQVWVDAGTQIFFSYAICLGCLTALGSYNNY belongs -0.486.
To MESPNRTTIQEFIFSAFPYSWVKSVVCFVPLLFIYA belongs 1.11; to VNKSVLTNYRFPSSLCVGLGQMVATVAVLWVGKALR, 2.09; to PPPLFHEGAPYPPPLFIRDTYNQSIPQPPPRKIKRP, 5.44.
As for TIEMPQQARQKLQNLFINFCLILICLLLICIIVMLL, the figure is -2.27; as for DLITCHLALVHLVMLLTVSFLASPDLFESQYFQNDF, -0.594; as for KKLKLGARESAKLAMICSGVSLLCFSTLFIVGCESI, 2.83.
On to QTNLGFIHAFVAAISVIIVSELGDKTFFIAAIMAMH, for which the enrichment score was -0.671.
Regarding HSSLYLGILNAIAMIGPIIGFTLGSLFSKMYVDIGY, the enrichment score turned out to be 0.761.
As for MALPFALLMALVVLSCKSSCSLDCDLPQTHSLGHRR, the figure is 3.9; as for NKTTYENWREIHHLVFHVANICFAVGLVIPTTLHLH, -0.264.

Source of the values: the supplement of paper PMC11237882.
